Laboratory results from PMC2412914.
These are yes or no findings as the source states them, for the method shown. Binding seen in cells or lysates may run through a third protein. Some entries that bind do so weakly or less than the wild type.

Protein sequences, listed by entry. Tags and fused reporters are not part of them. Lines headed by an entry give the natural chain unless they say otherwise; changes in a name come on top.
UniProt P04608: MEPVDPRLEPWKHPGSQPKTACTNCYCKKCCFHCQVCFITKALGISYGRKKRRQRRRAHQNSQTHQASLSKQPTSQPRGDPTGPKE
UniProt P50750: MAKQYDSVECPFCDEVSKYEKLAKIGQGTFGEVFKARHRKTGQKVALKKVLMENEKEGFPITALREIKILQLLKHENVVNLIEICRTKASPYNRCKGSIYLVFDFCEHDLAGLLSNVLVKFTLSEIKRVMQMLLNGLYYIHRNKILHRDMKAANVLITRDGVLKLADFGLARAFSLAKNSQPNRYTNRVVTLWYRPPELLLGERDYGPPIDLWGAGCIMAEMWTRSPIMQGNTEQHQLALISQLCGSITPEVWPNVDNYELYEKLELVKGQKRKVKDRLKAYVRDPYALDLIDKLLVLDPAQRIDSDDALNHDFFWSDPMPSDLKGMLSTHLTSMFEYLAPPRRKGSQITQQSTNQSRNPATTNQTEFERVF

Target: purified wild type Tat 1–86 (HIV-1) (UniProt P04608)
Assay: pull-down; biotin-TAR RNA (1.5 ug) held on streptavidin beads; purified Tat incubated with CEM nuclear extract (2 mg/reaction) in TNE50 buffer with protease inhibitors and RNAsin overnight at 4°C; Western blot for cyclin T; only the target purified

endogenous Cdk9/cyclin T complex (from UniProt P50750 1-372; O60563 1-726)
binding: binds
